# Measured values from patent publication US20030194372A1, “Radioimaging probes and the use thereof” (priority 2000, published 2003).
# Test system: human LDL
# Test: Drug loading into human LDL with or without insect lipid transfer protein (iLTP)
# Conditions: for Drug loading into human LDL, No LTP: incubated 4 hrs at 37° C. in the absence of iLTP; for Drug loading into human LDL, LTP added: incubated 4 hrs at 37° C. in the presence of purified iLTP
# Experimental: iLTP was isolated and purified according following the previously published protocol [Ryan, J. Lipid Res., 31:1725-739 (1990); Liu and Ryan, Biochim Biophys. Acta, 1085:112-118 (1991)].
# A typical experiment involved dissolving the drug in an appropriate solvent. After the removal of the solvent under nitrogen, a small quantity of wetting agent was added. An appropriate amount of LDL was then added, based on optimum drug: LDL ratio (for example, 1:1 for Dox) to enhance drug entrapment into LDL. The mixtures were then incubated for 4 hrs at 37° C. in the absence or presence of purified iLTP (typically 20-30 mg of iLTP protein/mg of LDL). After incubation, the mixtures were centrifuged at a density in which the LDL/drug complex floated to the top of the centrifuge tube, while the unbound drug and iLTP remained at the bottom of the tube. The LDL/drug fractions were collected and dialyzed to remove any trace of free drugs remaining. The cholesterol was assayed enzymatically using a commercially available kit (Sigma Chemical Company). The amount of drug associated with LDL was determined by HPLC for Dox, CI, mp-TdR, do-IUdR, by gamma counter for the radiolabeled ^1251-CI, or by liquid scintillation counting for ^3H-mp-TdR.
SMILES,"Drug loading into human LDL, No LTP","Drug loading into human LDL, LTP added"
"CCC(Cc1c(I)cc(I)c(N)c1I)C(=O)O[C@H]1CC[C@@]2(C)C(=CC[C@H]3[C@@H]4CC[C@H]([C@H](C)CCCC(C)C)[C@@]4(C)CC[C@@H]32)C1 (some centres unmarked) [CI, cholesteryl iopanoate]",36.7 mole drug/mole LDL,143.4 mole drug/mole LDL
"COc1cccc2c1C(=O)c1c(O)c3c(c(O)c1C2=O)C[C@@](O)(C(=O)CO)C[C@@H]3O[C@H]1C[C@H](N)[C@H](O)[C@H](C)O1 [DOX, Doxorubicin]",11.9 mole drug/mole LDL,54 mole drug/mole LDL
"CCCCCCCCCCCCCCCC(=O)C(O)[C@H]1O[C@@H](n2cc(I)c(=O)[nH]c2=O)C[C@@]1(O)C(=O)CCCCCCCCCCCCCCC (some centres unmarked) [dp-IudR, 3′,5′-dipalmitoyl-5-iodo-deoxyuridine]",100 mole drug/mole LDL,425 mole drug/mole LDL
"[3H]Cc1cn(C2CC(OC(=O)CCCCCCCCCCCCCCC)C(CO)O2)c(=O)[nH]c1=O (centres unmarked) [mp-TdR, 3′-palmitoyl-[methyl-^3H]-2′-deoxythymidine]",85 mole drug/mole LDL,238 mole drug/mole LDL
